Experimental data published in patent US11802258B2, “Perfume precursor” (TAKASAGO INTERNATIONAL CORPORATION, priority 2017, dated 2023).

Legend:
Settings in all cases: compound released, GC/MS of head space
[1] = system: lipase preparation AY “Amano” 30SD; experiment: Lipase-induced scent emission test, lipase preparation AY “Amano” 30SD; format: biochemical
Description: 10 mg of a fragrance precursor and 1 g of an aqueous 1% lipase preparation solution were put in a vial bottle and mixed and after hermetically sealing the bottle, the mixture was subjected to GC/MS analysis of the head space component to obtain a peak area of the scent-emitting compound. As a control, water was used in place of the aqueous 1% lipase preparation solution, and a peak area of the control was obtained by the same method. The scent emission amount was determined from the difference between the obtained peak area of the scent-emitting compound and the peak area of the control.
(GC/MS Measurement Conditions)
Measurement instrument: 7890GC/5975M (manufactured by Agilent Technologies) • Column: BC-WAX50 m×0.25 mm I.D. • Temperature rise: 70° C. to 220° C., 4° C./min • Split ratio: 60:1

[2] = system: Moraxella osloensis ATCC19976; experiment: Scent emission test by microorganism, Moraxella osloensis; format: cell-based
Description: Culture of Staphylococcus aureus strain NBRC12732, Corynebacterium xerosis strain JCM1324, Pseudomonas aeruginosa strain NBRC13275, and Moraxella osloensis strain ATCC19976:
After inoculating each of bacteria in Muller-Hinton liquid medium, shaking culture was performed at 30° C. for 20 hours, and 3 mL of the resulting preculture solution was transferred to a vial bottle. 10 mg of each of the fragrance precursors was mixed therewith and after hermetical sealing, shaking culture was further performed at 30° C. for 20 hours.
(§1) A peak area of the scent-emitting compound was obtained by performing GC/MS analysis of the head space component included in the vial bottle containing 3 mL of a microorganism culture solution in which 10 mg of the fragrance precursor was mixed. A microorganism culture solution having not mixed therein the fragrance precursor was used as the control, and a peak area of the control was obtained by the same method. The scent emission amount was determined from the difference between the obtained peak area of the scent-emitting compound and the peak area of the control.
(§2) Measurement instrument: 7890GC/5975MSD (manufactured by Agilent Technologies) • Column: BC-WAX 50 m×0.25 mm I.D. • Temperature rise: 70° C. to 220° C., 4° C./min • Split ratio: splitless

[3] = system: Propionibacterium acnes JCM6473; experiment: Scent emission test by microorganism, Propionibacterium acnes; format: cell-based
Description: Culture of Propionibacterium acnes Strain JCM6473:
(§3) After inoculating the bacterium in GAM bouillon liquid medium containing Hemin 0.5 ppm and Menadione 0.5 ppm, static culture was performed at 28° C. for 3 days under anaerobic conditions, and 3 mL of the resulting preculture solution was transferred to a vial bottle. 10 mg of each of the fragrance precursors was mixed therewith and after hermetical sealing, static culture was further performed at 28° C. for 3 days.
as §1, §2

[4] = system: Malassezia furfur NBRC0656; experiment: Scent emission test by microorganism, Malassezia furfur; format: cell-based
Description: Culture of Malassezia furfur Strain NBRC0656:
as §3, with “Sabouraud” for “GAM bouillon”, “0.1% Tween 80,” for “Hemin 0.5 ppm and Menadione 0.5 ppm,”, “of” for “of each of”, “precursor” for “precursors”
as §1, §2

CC/C=C\CCOC(=O)c1ccccc1O [(Z)-3-hexenyl salicylate]
Scent-Emitting Compound [1]: (Z)-3-hexenol

CC(C)[C@@H]1CC[C@@H](C)C[C@H]1OC(=O)c1ccccc1 [Example 6, (1R,2S,5R)-isopropyl-5-methylcyclohexyl benzoate]
Scent-Emitting Compound [1]: menthol

CC(C)=CCC/C(C)=C/CC[C@H](C)CCOC(=O)c1ccccc1 [Example 7, (S,E)-3,7,11-trimethyl-6,10-dodecadienyl Benzoate]
Scent-Emitting Compound [1]: dihydrofarnesol

COc1ccc(C(=O)OCC[C@@H](C)CC/C=C(\C)CCC=C(C)C)cc1 [Example 8, (S,E)-3,7,11-trimethyl-6,10-dodecadienyl Anisate]
Scent-Emitting Compound [1]: dihydrofarnesol

CC/C=C\CCOC(=O)c1ccccc1 [Example 11, (Z)-3-hexenyl Benzoate]
Scent-Emitting Compound [1]: (Z)-3-hexenol

O=C(C=Cc1ccccc1)OCC=Cc1ccccc1 [cinnamyl cinnamate]
Scent-Emitting Compound [1]: cinnamic alcohol

CC(C)=CCCC(C)CCOC(=O)Cc1ccccc1 (stereo not drawn) [citronellyl phenylacetate]
Scent-Emitting Compound [2]: citronellol
Scent-Emitting Compound [3]: citronellol
Scent-Emitting Compound [4]: citronellol

CC(C)=CCC/C(C)=C/COC(=O)c1ccccc1 [geranyl benzoate]
Scent-Emitting Compound [1]: geraniol

CC(C)=CCC/C(C)=C/COC(=O)Cc1ccccc1 [geranyl phenylacetate]
Scent-Emitting Compound [1]: geraniol

O=C(OCCc1ccccc1)c1ccccc1 [phenylethyl benzoate]
Scent-Emitting Compound [1]: phenylethyl alcohol

O=C(C=Cc1ccccc1)OCCc1ccccc1 [phenylethyl cinnamate]
Scent-Emitting Compound [1]: phenylethyl alcohol

O=C(Cc1ccccc1)OCCc1ccccc1 [phenylethyl phenylacetate]
Scent-Emitting Compound [1]: phenylethyl alcohol

C=C(C)CCC[C@H](C)CCOC(=O)Cc1ccccc1 [rosinyl phenylacetate]
Scent-Emitting Compound [1]: rosinol
